Results are given in words; binding and its absence hold for the method and conditions named. Some binding calls cover weakened binding; strength is not graded here.
Molecular target: polyhistidine-tagged REV7 (R124A) (UniProt Q9UI95)
Experiment: co-purification (co-expression, metal affinity chromatography); His-tagged REV7(R124A) and REV3(1847-1898) co-expressed in E. coli BL21 STAR (DE3); complex purified by metal affinity chromatography by the His tag on REV7

Amino acid sequences for entries named in this document (tags omitted). A change or cut given only in a name is not applied to a line headed by its entry.
UniProt Q9UI95: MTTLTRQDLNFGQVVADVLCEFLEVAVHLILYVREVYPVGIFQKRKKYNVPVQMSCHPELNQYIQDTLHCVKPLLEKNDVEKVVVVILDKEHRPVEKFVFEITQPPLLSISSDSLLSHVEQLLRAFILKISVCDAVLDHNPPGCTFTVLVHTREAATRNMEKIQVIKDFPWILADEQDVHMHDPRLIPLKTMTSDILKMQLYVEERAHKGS

B1: truncated REV3 (residues 1847-1898) (domain or fragment, UniProt O60673 1847-1898)
chain: MLTPTPDSSPRSTSSPSQSKNGSFTPRTANILKPLMSPPSREEIMATLLDHD
- binding: binds

Source: PMC8016126
